{"sequences": {"note": "The chains behind the UniProt entries cited, without tags or fusion partners. Where a name states a change or a piece, a line headed by the entry shows the natural chain unless it says otherwise. Residues count along the entry.", "UniProt P84022": "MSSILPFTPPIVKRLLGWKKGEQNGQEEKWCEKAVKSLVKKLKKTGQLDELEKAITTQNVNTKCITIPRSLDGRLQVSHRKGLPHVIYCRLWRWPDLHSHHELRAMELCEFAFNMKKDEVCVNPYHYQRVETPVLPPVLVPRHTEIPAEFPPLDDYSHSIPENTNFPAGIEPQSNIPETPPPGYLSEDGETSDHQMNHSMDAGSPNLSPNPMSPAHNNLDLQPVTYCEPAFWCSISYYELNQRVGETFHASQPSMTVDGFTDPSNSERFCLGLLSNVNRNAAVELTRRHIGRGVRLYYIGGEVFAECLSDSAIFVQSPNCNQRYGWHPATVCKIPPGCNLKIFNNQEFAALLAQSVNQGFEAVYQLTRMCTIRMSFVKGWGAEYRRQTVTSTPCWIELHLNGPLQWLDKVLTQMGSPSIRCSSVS", "Smad3N (aa 1-144)": "residues 1-144 of P84022", "Smad3C (aa 231-424)": "residues 231-424 of P84022", "UniProt Q15796": "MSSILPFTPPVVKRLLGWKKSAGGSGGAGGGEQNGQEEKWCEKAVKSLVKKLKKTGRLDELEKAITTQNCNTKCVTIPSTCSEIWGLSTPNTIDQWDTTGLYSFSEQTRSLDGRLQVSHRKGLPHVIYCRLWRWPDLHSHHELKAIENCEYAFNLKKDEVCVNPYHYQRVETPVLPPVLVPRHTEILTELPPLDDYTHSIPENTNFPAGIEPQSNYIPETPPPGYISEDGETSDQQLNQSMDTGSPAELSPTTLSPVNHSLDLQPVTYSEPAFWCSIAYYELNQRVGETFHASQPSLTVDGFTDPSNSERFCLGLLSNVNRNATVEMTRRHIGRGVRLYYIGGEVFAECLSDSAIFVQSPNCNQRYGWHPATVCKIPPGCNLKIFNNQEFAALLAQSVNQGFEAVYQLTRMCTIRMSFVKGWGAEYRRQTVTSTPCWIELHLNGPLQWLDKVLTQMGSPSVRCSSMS", "UniProt P0A7C2": "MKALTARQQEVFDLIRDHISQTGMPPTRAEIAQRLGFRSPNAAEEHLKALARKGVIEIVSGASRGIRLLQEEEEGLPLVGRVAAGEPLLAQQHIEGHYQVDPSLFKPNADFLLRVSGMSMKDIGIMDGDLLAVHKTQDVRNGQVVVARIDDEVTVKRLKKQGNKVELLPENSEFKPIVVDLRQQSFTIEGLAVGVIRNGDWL", "UniProt P28070": "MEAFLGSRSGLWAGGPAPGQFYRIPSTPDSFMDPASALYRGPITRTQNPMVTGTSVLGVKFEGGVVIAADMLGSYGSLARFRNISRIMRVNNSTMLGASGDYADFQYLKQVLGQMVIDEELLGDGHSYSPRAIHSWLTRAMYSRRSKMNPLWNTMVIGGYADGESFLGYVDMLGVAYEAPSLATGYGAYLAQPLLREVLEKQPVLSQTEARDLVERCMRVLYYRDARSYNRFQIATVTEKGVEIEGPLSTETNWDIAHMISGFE", "UniProt P54368, residues 101-228": "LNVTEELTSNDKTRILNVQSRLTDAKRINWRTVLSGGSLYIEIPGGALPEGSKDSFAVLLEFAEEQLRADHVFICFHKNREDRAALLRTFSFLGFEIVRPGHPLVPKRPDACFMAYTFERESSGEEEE"}, "source": "patent US6906179", "binders": {"B1": {"name": "HEF1, Human enhancer of filamentation (yeast two-hybrid clone, starts at nt. 1527 of GenBank ID No. L43821) (protein, UniProt Q14511 456-834, looked up)", "chain": "ELFLKEYLHFVKGAVANAACLPELILHNKMKRELQRVEDSHQILSQTSHDLNECSWSLNILAINKPQNKCDDLDRFVMVAKTVPDDAKQLTTTINTNAEALFRPGPGSLHLKNGPESIMNSTEYPHGGSQGQLLHPGDHKAQAHNKALPPGLSKEQAPDCSSSDGSERSWMDDYDYVHLQGKEEFERQQKELLEKENIMKQNKMQLEHHQLSQFQLLEQEITKPVENDISKWKPSQSLPTTNSGVSAQDRQLLCFYYDQCETHFISLLNAIDALFSCVSSAQPPRIFVAHSKFVILSAHKLVFIGDTLTRQVTAQDIRNKVMNSSNQLCEQLKTIVMATKMAALHYPSTTALQEMVHQVTDLSRNAQLFKRSLLEMATF"}, "B2": {"name": "Clone S3+12 (protein)", "chain": "EFGTRRRKATEISTAVVQRSATIGSSPVLYSQSAIATGHQAAGIGNQATGIGHQTIPVSLPAAGMGHQARGMSLQSNYLGLAAAPAIMSYAECSVPIGVTAPSLQPVQARGAVPTATIIEPPPPPPPPPPPPPPAPKMPPPEKTKKGRKDKAKKSKTKMPSLVKKWQSIQRELDEEDNSSSSEEDRESTAQKRIEEWKQQQLVSGMAERNANFEALPEDWRARLKRRKMAPNT"}, "B3": {"name": "TRIP-4 (an interactor of thyroid hormone receptor), clone S3+75 (protein, UniProt Q15650 115-581, looked up)", "chain": "VPAFTEPDTTAEVKTPFDLAKAQENSNSVKKKTKFVNLYTREGQDRLAVLLPGRHPCDCLGQKHKLINNCLICGRIVCEQEGSGPCLFCGTLVCTHEEQDILQRDSNKSQKLLKKLMSGVENSGKVDISTKDLLPHQELRIKSGLEKAIKHKDKLLEFDRTSIRRTQVIDDESDYFASDSNQWLSKLERETLQKREEELRELRHASRLSKKVTIDFAGRKILEEENSLAEYHSRLDETIQAIANGTLNQPLTKLDRSSEEPLGVLVNPNMYQSPPQWVDHTGAASQKKAFRSSGFGLEFNSFQHQLRIQDQEFQEGFDGGWCLSVHQPWASLLVRGIKRVEGRSWYTPHRGRLWIAATAKKPSPQEVSELQATYRLLRGKDVEFPNDYPSGCLLGCVDLIDCLSQKQFKEQFPDISQESDSPFVFICKNPQEMVVKFPIKGNPKIWKLDSKIHQGAKKGLMKQNKAV"}, "B4": {"name": "FKBP25 (a prolyl-isomerase), clone S3+127 (enzyme, UniProt Q00688 100-224, looked up)", "chain": "SEETLDEGPPKYTKSVLKKGDKTNFPKKGDVVHCWYTGTLQDGTVFDTNIQTSAKKKKNAKPLSFKVGVGKVIRGWDEALLTMSKGEKARLEIEPEWAYGKKGQPDAKIPPNAKLTFEVELVDID"}, "B5": {"name": "RBP2 (an interactor of the tumor suppressor RB protein), clone S3+63 (protein, UniProt P29375 1248-1690, looked up)", "chain": "CLTERAMSWQDRARQALATDELSSALAKLSVLSQRMVEQAAREKTEKIISAELQKAAANPDLQGHLPSFQQSAFNRVVSSVSSSPRQTMDYDDEETDSDEDIRETYGYDMKDTASVKSSSSLEPNLFCDEEIPIKSEEVVTHMWTAPSFCAEHAYSSASKSCSQGSSTPRKQPRKSPLVPRSLEPPVLELSPGAKAQLEELMMVGDLLEVSLDETQHIWRILQATHPPSEDRFLHIMEDDSMEEKPLKVKGKDSSEKKRKRKLEKVEQLFGEGKQKSKELKKMDKPRKKKLKLGADKSKELNKLAKKLAKEEERKKKKEKAAAAKVELVKESTEKKREKKVLDIPSKYDWSGAEESDDENAVCAAQNCQRPCKDKVDWVQCDGGCDEWFHQVCVGVSPEMAENEDYICINCAKKQGPVSPGPAPPPSFIMSYKLPMEDLKETS"}, "B6": {"name": "GST (glutathione transferase), clone S1+13 (enzyme, not shown: small tags and cut ends)", "chain": "SCESSMVLGYWDIRGLAHAIRLLLEFTDTSYEEKRYTCGEAPDYDRSQWLDVKFKLDLDFPNLPYLLDGKNKITQSNAILRYIARKHNMCGETEEEKIRVDIIENQVMDFRTQLIRLCYSSDHEKLKPQYLEELPGQLKQFSMFLGKFSWFAGEKLTFVDFLTYDILDQNRIFDPKCLDEFPNLKAFMCRFEALEKIAAYLQSDQFCKMPINNKMAQWGNKPVC"}, "B7": {"name": "PAG (an antioxidant protein), clone S1+35 (protein, human, UniProt Q06830 35-199, looked up)", "chain": "KGKYVVFFFYPLDFTFVCPTEIIAFSDRAEEFKKLNCQVIGASVDSHFCHLAWVNTPKKQGGLGPMNIPLVSDPKRTIAQDYGVLKADEGISFRGLFIIDDKGILRQITVNDLPVGRSVDETLRLVQAFQFTDKHGEVCPAGWKPGSDTIKPDVQKSKEYFSKQK"}, "B8": {"name": "Ran-GTP binding protein 5, clone S1+32 (protein, human, UniProt O00410 230-1097, looked up)", "chain": "YQNDDSVLKSLVEIADTVPKYLRPHLEATLQLSLKLCGDTSLNNMQRQLALEVIVTLSETAAAMLRKHTNIVAQTIPQMLAMMVDLEEDEDWANADELEDDDFDSNAVAGESALDRMACGLGGKLVLPMIKEHIMQMLQNPDWKYRHAGLMALSAIGEGCHQQMEGILNEIVNFVLLFLQDPHPRVRYAACNAVGQMATDFAPGFQKKFHEKVIAALLQTMEDQGNQRVQAHAAAALINFTEDCPKSLLIPYLDNLVKHLHSIMVLKLQELIQKGTKLVLEQVVTSIASVADTAEEKFVPYYDLFMPSLKHIVENAVQKELRLLRGKTIECISLIGLAVGKEKFMQDASDVMQLLLKTQTDFNDMEDDDPQISYMISAWARMCKILGKEFQQYLPVVMGPLMKTASIKPEVALLDTQDMENMSDDDGWEFVNLGDQQSFGIKTAGLEEKSTACQMLVCYAKELKEGFVEYTEQVVKLMVPLLKFYFHDGVRVAAAESMPLLLECARVRGPEYLTQMWHFMCDALIKAIGTEPDSDVLSEIMHSFAKCIEVMGDGCLNNEHFEELGGILKAKLEEHFKNQELRQVKRQDEDYDEQVEESLQDEDDNDVYILTKVSDILHSIFSSYKEKVLPWFEQLLPLIVNLICPHRPWPDRQWGLCIFDDVIEHCSPASFKYAEYFLRPMLQYVCDNSPEVRQAAAYGLGVMAQYGGDNYRPFCTEALPLLVRVIQSADSKTKENVNATENCISAVGKIMKFKPDCVNVEEVLPHWLSWLPLHEDKEEAVQTFNYLCDLIESNHPIVLGPNNTNLPKIFSIIAEGEMHEAIKHEDPCAKRLANVVRQVQTSGGLWTECIAQLSPEQQAAIQELLNSA"}, "B9": {"name": "p105HEF1 (full length HEF1, 105 kD form) (protein, human, UniProt Q14511 1-834, looked up)", "chain": "MKYKNLMARALYDNVPECAEELAFRKGDILTVIEQNTGGLEGWWLCSLHGRQGIVPGNRVKLLIGPMQETASSHEQPASGLMQQTFGQQKLYQVPNPQAAPRDTIYQVPPSYQNQGIYQVPTGHGTQEQEVYQVPPSVQRSIGGTSGPHVGKKVITPVRTGHGYVYEYPSRYQKDVYDIPPSHTTQGVYDIPPSSAKGPVFSVPVGEIKPQGVYDIPPTKGVYAIPPSACRDEAGLREKDYDFPPPMRQAGRPDLRPEGVYDIPPTCTKPAGKDLHVKYNCDIPGAAEPVARRHQSLSPNHPPPQLGQSVGSQNDAYDVPRGVQFLEPPAETSEKANPQERDGVYDVPLHNPPDAKGSRDLVDGINRLSFSSTGSTRSNMSTSSTSSKESSLSASPAQDKRLFLDPDTAIERLQRLQQALEMGVSSLMALVTTDWRCYGYMERHINEIRTAVDKVELFLKEYLHFVKGAVANAACLPELILHNKMKRELQRVEDSHQILSQTSHDLNECSWSLNILAINKPQNKCDDLDRFVMVAKTVPDDAKQLTTTINTNAEALFRPGPGSLHLKNGPESIMNSTEYPHGGSQGQLLHPGDHKAQAHNKALPPGLSKEQAPDCSSSDGSERSWMDDYDYVHLQGKEEFERQQKELLEKENIMKQNKMQLEHHQLSQFQLLEQEITKPVENDISKWKPSQSLPTTNSGVSAQDRQLLCFYYDQCETHFISLLNAIDALFSCVSSAQPPRIFVAHSKFVILSAHKLVFIGDTLTRQVTAQDIRNKVMNSSNQLCEQLKTIVMATKMAALHYPSTTALQEMVHQVTDLSRNAQLFKRSLLEMATF", "modifications": "form derived from differential phosphorylation; sites not given"}, "B10": {"name": "HEF1 M2 (aa 651-834) (protein, human, UniProt Q14511 651-834, looked up)", "chain": "ENIMKQNKMQLEHHQLSQFQLLEQEITKPVENDISKWKPSQSLPTTNSGVSAQDRQLLCFYYDQCETHFISLLNAIDALFSCVSSAQPPRIFVAHSKFVILSAHKLVFIGDTLTRQVTAQDIRNKVMNSSNQLCEQLKTIVMATKMAALHYPSTTALQEMVHQVTDLSRNAQLFKRSLLEMATF"}, "B11": {"name": "HEF1 M2/N (aa 651-759) (protein, human, UniProt Q14511 651-759, looked up)", "chain": "ENIMKQNKMQLEHHQLSQFQLLEQEITKPVENDISKWKPSQSLPTTNSGVSAQDRQLLCFYYDQCETHFISLLNAIDALFSCVSSAQPPRIFVAHSKFVILSAHKLVFI"}, "B12": {"name": "HEF1 M2/M (aa 695-759) (protein, human, UniProt Q14511 695-759, looked up)", "chain": "TTNSGVSAQDRQLLCFYYDQCETHFISLLNAIDALFSCVSSAQPPRIFVAHSKFVILSAHKLVFI"}, "B13": {"name": "HEF1 M2/C (aa 695-832) (protein, human, UniProt Q14511 695-832, looked up)", "chain": "TTNSGVSAQDRQLLCFYYDQCETHFISLLNAIDALFSCVSSAQPPRIFVAHSKFVILSAHKLVFIGDTLTRQVTAQDIRNKVMNSSNQLCEQLKTIVMATKMAALHYPSTTALQEMVHQVTDLSRNAQLFKRSLLEMA"}, "B14": {"name": "Clone S1+27 (SIP2) (protein)", "chain": "KSSPLLIRMEESLNIVKYTAFLYNDQLIWSGLEQDDMRILYKYLTTSLFPRHIEPELAGRDSPIRAEMPGNLQHYGRFLTGPLNLNDPDAKCRFPKIFVNTDDTYEELHLIVYKAMSAAVCFMIDASVHPTLDFCRRLDSIVGPQLTVLASDICEQFNINKRMSGSEKEPQFKFIYFNHMNLAEKSTVHMRKTPSVSLTSVHPDLMKILGDINSDFTRVDEDEEIIVKAMSDYWVVGKKSDRRELYVILNQKNANLIEVNEVKKLCATQFNNIFFLD"}, "B15": {"name": "Clone S1+28 (protein)", "chain": "FAVDAKALPQNKPRPLTQEEIAQRRERARQRHAEKLAAAQGQAPLEPTQDGSAIETCPKGDEPRGDEQQVESMTPKPVLQEENNQESFIAFARVFSGVARRGKKIFVLGPKYSPLEFLRRVPLCFSAPPDGLPQVPHMAYCALENLYLLMGRELEYLEEVPPGNVLGIGGLQDFVLKSATLCSLPSCPPFIPLNFEATPIVRVAVEPKHPSEMPQLVKGMKLLNQADPCVQILIQETGEHVLVTAGEVHLQRCLDDLKERFAKIHISVSEPIIPFRETITKPPKVDMVNEEIGKQQKVAVIHQMKEDQSKIPEGIQVDSDGLITITTPNKLATLSVRAMPLPEEVTQILEENSDLIRSMEQLTSSLNEGENTHMIHQKTQEKIWEFKGKLEQHLTGRRWRNIVDQIWSFGPRKCGPNILVNKSEDFQNSVWTGPADKASKEASRYRDLGNSIVSGFQLATLSGPMCEEPLMGVCFVLEKWDLSKFEEQGASDLAKEDRRKMKPVLVEMKTKSYKMAALRPLRRGHHRKENLHSLTAMDLSQDS"}}, "note": "These are yes or no findings as the source states them, for the method shown. For part of these data: In cells and extracts the contact can be indirect. Some binding calls cover weakened binding; strength is not graded here. For part of these data: Tags and fused reporters may be left off the sequences shown."}
{"biological_target": "Smad3 (UniProt P84022)", "test": "yeast two-hybrid; list of Smad3 interactors"}
{"binder": "B1", "binding": "binds"}
{"binder": "B2", "binding": "binds"}
{"binder": "B3", "binding": "binds"}
{"binder": "B4", "binding": "binds"}
{"binder": "B5", "binding": "binds"}
{"biological_target": "Smad2 (UniProt Q15796)", "test": "yeast two-hybrid; list of Smad2 interactors"}
{"binder": "B6", "binding": "binds"}
{"binder": "B3", "binding": "binds"}
{"biological_target": "LexA-Smad1 (full length Smad1 fused in frame to the LexA DNA binding domain (1-202) in pEG202) (UniProt P0A7C2)", "test": "yeast two-hybrid; list of Smad1 interactors"}
{"binder": "B7", "binding": "binds"}
{"binder": "B6", "binding": "binds"}
{"binder": "B2", "binding": "binds"}
{"binder": "B3", "binding": "binds"}
{"binder": "B8", "binding": "binds"}
{"biological_target": "HsN3 (human) (UniProt P28070)", "test": "list of HsN3 interactors; method not detailed"}
{"binder": "B1", "binding": "binds"}
{"biological_target": "Smad3N (aa 1-144) (UniProt P84022)", "test": "co-immunoprecipitation, transfected cells"}
{"binder": "B9", "binding": "binds"}
{"biological_target": "Smad3 (UniProt P84022)", "test": "co-immunoprecipitation, transfected cells"}
{"binder": "B9", "binding": "binds"}
{"biological_target": "Smad3C (aa 231-424) (UniProt P84022)", "test": "co-immunoprecipitation, transfected cells"}
{"binder": "B9", "binding": "binds"}
{"binder": "B10", "binding": "binds"}
{"binder": "B11", "binding": "binds"}
{"binder": "B12", "binding": "binds"}
{"binder": "B13", "binding": "binds"}
{"biological_target": "antizyme (human) (UniProt P54368)", "test": "list of antizyme interactors; yeast two-hybrid (FIG. 30)"}
{"binder": "B1", "binding": "binds"}
{"binder": "B14", "binding": "binds"}
{"binder": "B15", "binding": "binds"}
{"binder": "B7", "binding": "binds"}
